# Results from the supplement of paper PMC6411743.
# ± gives the standard deviation of the averaged measurements. The list shows a part of the results.
# Experiments:
# Test in all cases: NP40-soluble protein abundance relative to vehicle (solubility fold change) (ratio); higher = more soluble protein in presence of GTP
# [1] = molecular target: T1, UniProt Q9Y2K1 and related entries
# T1 sequence (whole entry): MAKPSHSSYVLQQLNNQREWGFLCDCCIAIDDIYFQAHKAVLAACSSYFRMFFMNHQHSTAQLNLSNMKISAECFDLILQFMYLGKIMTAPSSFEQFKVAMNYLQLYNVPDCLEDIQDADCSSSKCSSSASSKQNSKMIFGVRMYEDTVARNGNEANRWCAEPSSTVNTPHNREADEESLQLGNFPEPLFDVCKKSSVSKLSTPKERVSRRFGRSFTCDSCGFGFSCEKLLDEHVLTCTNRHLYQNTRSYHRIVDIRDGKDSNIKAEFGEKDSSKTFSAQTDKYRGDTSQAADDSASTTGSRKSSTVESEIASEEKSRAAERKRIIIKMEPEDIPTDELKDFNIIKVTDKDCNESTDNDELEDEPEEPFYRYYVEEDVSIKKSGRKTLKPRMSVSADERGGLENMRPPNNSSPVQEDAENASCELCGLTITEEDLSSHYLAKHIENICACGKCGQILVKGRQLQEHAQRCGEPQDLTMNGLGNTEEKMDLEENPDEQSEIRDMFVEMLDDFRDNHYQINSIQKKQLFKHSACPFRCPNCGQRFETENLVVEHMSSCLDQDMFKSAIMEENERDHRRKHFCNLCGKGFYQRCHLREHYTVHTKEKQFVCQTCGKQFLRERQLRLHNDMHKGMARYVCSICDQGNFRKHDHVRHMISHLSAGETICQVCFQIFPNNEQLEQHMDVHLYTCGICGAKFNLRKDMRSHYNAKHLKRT
# Method in brief: (§1)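 Across three independent experiments, values are fold changes against the detergent-processed vehicle for each replicate, based on vsn-normalised intensities. The samples were Jurkat crude lysate treated with eight concentrations (0.1 to 10 mM) for 10 min at room temperature and then 3 min at 37 °C. Lysate was solubilised with 0.8% NP40 and benzonase, ultracentrifuged, and the supernatant analysed by TMT-labelled LC-MS/MS.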
# [2] = molecular target: T2, UniProt Q9Y312 and related entries
# T2 sequence (whole entry): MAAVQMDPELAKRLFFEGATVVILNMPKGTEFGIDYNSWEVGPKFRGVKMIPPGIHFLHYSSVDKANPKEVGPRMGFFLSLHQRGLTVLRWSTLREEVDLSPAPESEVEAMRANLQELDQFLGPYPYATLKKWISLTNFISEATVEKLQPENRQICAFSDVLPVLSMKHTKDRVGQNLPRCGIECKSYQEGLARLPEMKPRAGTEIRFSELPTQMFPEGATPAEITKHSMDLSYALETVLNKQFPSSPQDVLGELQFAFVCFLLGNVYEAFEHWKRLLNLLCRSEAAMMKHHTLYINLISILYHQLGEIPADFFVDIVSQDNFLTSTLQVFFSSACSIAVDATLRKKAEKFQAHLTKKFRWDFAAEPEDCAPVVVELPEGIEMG
# Method in brief: as §1
# [3] = molecular target: T3, UniProt Q9Y4C2 and related entries
# T3 sequence (whole entry): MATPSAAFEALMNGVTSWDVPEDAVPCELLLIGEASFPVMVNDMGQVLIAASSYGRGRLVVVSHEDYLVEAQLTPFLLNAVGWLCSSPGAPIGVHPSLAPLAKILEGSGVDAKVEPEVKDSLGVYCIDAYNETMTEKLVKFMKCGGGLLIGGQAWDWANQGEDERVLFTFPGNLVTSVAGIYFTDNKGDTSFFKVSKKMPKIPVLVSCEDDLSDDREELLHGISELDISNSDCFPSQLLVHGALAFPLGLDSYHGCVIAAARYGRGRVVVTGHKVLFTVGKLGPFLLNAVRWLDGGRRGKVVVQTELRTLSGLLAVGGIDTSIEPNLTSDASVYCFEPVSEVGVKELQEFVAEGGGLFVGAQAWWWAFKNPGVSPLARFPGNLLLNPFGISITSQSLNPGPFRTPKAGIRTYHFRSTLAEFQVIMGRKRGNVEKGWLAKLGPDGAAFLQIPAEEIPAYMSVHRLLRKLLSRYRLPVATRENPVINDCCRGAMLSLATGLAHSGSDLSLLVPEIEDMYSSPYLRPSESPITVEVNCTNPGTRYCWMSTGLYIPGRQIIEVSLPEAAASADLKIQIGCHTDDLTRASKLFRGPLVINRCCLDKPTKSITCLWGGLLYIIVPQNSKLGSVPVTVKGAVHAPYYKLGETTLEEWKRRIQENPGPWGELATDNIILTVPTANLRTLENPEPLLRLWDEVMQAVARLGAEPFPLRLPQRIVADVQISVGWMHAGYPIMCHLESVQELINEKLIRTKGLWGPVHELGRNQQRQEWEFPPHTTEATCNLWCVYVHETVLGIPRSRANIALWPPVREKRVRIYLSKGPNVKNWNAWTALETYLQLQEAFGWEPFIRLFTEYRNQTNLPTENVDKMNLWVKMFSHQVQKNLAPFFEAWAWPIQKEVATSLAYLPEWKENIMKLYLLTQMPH
# Method in brief: as §1
# [4] = molecular target: T4, UniProt Q9Y4W2 and related entries
# T4 sequence (whole entry): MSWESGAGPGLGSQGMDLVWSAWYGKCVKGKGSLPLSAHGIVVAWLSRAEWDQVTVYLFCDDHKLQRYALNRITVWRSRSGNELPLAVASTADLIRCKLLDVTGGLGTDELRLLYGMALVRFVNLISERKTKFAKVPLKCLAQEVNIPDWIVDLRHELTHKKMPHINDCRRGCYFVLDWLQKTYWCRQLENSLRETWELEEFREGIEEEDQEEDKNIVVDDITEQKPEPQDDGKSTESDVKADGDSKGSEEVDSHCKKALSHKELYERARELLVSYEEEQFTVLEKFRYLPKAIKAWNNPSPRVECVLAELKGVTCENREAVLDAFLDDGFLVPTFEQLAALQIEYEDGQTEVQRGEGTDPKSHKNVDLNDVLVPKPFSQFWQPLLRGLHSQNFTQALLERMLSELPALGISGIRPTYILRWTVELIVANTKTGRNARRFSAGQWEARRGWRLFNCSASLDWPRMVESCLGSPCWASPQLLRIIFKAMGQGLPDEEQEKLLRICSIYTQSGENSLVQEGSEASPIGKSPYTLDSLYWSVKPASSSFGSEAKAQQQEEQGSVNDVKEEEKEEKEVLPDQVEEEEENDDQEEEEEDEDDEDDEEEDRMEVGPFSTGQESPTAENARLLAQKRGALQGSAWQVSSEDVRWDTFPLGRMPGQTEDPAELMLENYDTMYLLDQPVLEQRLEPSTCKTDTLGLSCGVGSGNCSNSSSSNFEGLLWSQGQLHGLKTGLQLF
# Method in brief: as §1
structure (smiles),measurement,setting,value
Nc1nc2c(ncn2[C@@H]2O[C@H](COP(=O)(O)OP(=O)(O)OP(=O)(O)O)[C@@H](O)[C@H]2O)c(=O)[nH]1 [guanosine triphosphate],NP40-soluble protein abundance,[1]; concentration: 4mM,1.15 ± 0.08
same,NP40-soluble protein abundance,[1]; concentration: 6mM,1.17 ± 0.11
same,NP40-soluble protein abundance,[1]; concentration: 8mM,1.22 ± 0.11
same,NP40-soluble protein abundance,[1]; concentration: 10mM,1.25 ± 0.15
same,NP40-soluble protein abundance,[2]; concentration: 0.1mM,0.9705 ± 0.0056
same,NP40-soluble protein abundance,[2]; concentration: 0.5mM,1.03 ± 0.08
same,NP40-soluble protein abundance,[2]; concentration: 1mM,0.984 ± 0.035
same,NP40-soluble protein abundance,[2]; concentration: 2mM,1.02 ± 0.055
same,NP40-soluble protein abundance,[2]; concentration: 4mM,1.02 ± 0.053
same,NP40-soluble protein abundance,[2]; concentration: 6mM,0.971 ± 0.043
same,NP40-soluble protein abundance,[2]; concentration: 8mM,0.995 ± 0.059
same,NP40-soluble protein abundance,[2]; concentration: 10mM,0.955 ± 0.088
same,NP40-soluble protein abundance,[3]; concentration: 0.1mM,1.16 ± 0.061
same,NP40-soluble protein abundance,[3]; concentration: 0.5mM,1.09 ± 0.053
same,NP40-soluble protein abundance,[3]; concentration: 1mM,1.11 ± 0.024
same,NP40-soluble protein abundance,[3]; concentration: 2mM,1.08 ± 0.018
same,NP40-soluble protein abundance,[3]; concentration: 4mM,1.06 ± 0.044
same,NP40-soluble protein abundance,[3]; concentration: 6mM,1.08 ± 0.13
same,NP40-soluble protein abundance,[3]; concentration: 8mM,1.106 ± 0.006
same,NP40-soluble protein abundance,[3]; concentration: 10mM,1 ± 0.078
same,NP40-soluble protein abundance,[4]; concentration: 0.1mM,1.03 ± 0.055
same,NP40-soluble protein abundance,[4]; concentration: 0.5mM,1.04 ± 0.066
same,NP40-soluble protein abundance,[4]; concentration: 1mM,1.04 ± 0.14
same,NP40-soluble protein abundance,[4]; concentration: 2mM,1.09 ± 0.13
same,NP40-soluble protein abundance,[4]; concentration: 4mM,1.08 ± 0.15
same,NP40-soluble protein abundance,[4]; concentration: 6mM,1.11 ± 0.085
same,NP40-soluble protein abundance,[4]; concentration: 8mM,1.15 ± 0.16
same,NP40-soluble protein abundance,[4]; concentration: 10mM,1.13 ± 0.15

# Part of the list above, reformatted.
structure (smiles)	measurement	setting	value
Nc1nc2c(ncn2[C@@H]2O[C@H](COP(=O)(O)OP(=O)(O)OP(=O)(O)O)[C@@H](O)[C@H]2O)c(=O)[nH]1 [guanosine triphosphate]	NP40-soluble protein abundance	[2]; concentration: 6mM	0.971 ± 0.043
same	NP40-soluble protein abundance	[2]; concentration: 8mM	0.995 ± 0.059
